This passage reports binding results from PMC12726990.

The chains behind the UniProt entries cited, without tags or fusion partners. Residues count along the entry.
UniProt P20138, residues 18-364: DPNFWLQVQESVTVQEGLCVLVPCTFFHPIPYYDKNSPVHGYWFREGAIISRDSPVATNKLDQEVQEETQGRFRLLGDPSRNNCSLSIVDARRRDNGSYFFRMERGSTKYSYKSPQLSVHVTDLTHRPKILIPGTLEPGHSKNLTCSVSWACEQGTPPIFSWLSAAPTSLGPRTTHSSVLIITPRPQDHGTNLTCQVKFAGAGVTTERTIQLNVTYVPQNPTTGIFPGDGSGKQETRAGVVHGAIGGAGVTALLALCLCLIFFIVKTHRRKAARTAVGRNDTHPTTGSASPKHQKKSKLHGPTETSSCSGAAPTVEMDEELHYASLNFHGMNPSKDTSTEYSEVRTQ
UniProt P10909, residues 23-449: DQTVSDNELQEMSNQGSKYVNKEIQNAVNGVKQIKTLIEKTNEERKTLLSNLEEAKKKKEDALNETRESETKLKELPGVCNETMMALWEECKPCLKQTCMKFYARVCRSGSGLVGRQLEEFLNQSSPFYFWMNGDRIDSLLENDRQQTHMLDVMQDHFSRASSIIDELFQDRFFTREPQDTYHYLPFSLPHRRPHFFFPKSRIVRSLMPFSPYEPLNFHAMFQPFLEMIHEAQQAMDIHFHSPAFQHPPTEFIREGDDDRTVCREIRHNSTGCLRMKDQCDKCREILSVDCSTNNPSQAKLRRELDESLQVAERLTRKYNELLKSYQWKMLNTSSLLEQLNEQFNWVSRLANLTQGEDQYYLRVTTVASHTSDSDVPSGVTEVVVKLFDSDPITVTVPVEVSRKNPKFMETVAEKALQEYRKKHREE

Test [1] has as its target CD33, endogenous in human brain (human (endogenous in brain)) (UniProt P20138). In words: proximity ligation; in situ proximity ligation assay on AD and control human brain.
For test [2] the target is unchanged. In words: co-IP; co-immunoprecipitation from AD and control human brain lysates.

Results are given in words; binding and its absence hold for the method and conditions named. In cells and extracts the contact can be indirect. Some results given as binding are weak or reduced against the parent protein; the word gives no strength.

On to “Clusterin (CLU), endogenous in human brain (from UniProt P10909 23-449) (ligand)”, for which the binding result in test [1] and in test [2] was “binds” each time.
